Source: PubChem BioAssay AID1671195 (Yale University, 2021)

Screen: 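Genes whose knockdown alters LDL uptake in liver cancer cells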 (primary screen)
System: human Huh7 hepatoma cells
Knock-down reagent: siRNA pool against human genes, 18 nM
Duration: about 2 to 2.5 days of knockdown, then 8 h LDL uptake
Treatment: DiI-labelled LDL at 30 µg/ml for 8 h, in lipoprotein-deficient serum medium
Detection: 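Per-cell DiI-LDL intensity by automated imaging; well means scaled to the plate median and given as a robust z-score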
Scale: robust z-score: higher = more LDL uptake after knockdown
Rule for the call: 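Active when two or more replicates show a robust z-score above 2 or below -2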
The whole screen tested about 22,000 reagents; below is a part drawn at random. About 1,510 of all reagents (6.9%) were called active. 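Active includes knockdowns raising or lowering LDL uptake; positive z-scores mean more uptake, negative mean less.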 Entries without a mark were called inactive.

{"gene": "RPL29P13", "PubChem SID": "SID442891471", "robust z-score, replicate 1": 1.17, "robust z-score, replicate 2": -0.129, "robust z-score, replicate 3": -0.196}
{"gene": "TWNK", "PubChem SID": "SID442893545", "robust z-score, replicate 1": 0.32, "robust z-score, replicate 2": -0.0967, "robust z-score, replicate 3": -0.109}
{"gene": "OSCAR", "PubChem SID": "SID442886987", "robust z-score, replicate 1": 1.11, "robust z-score, replicate 2": 1.19, "robust z-score, replicate 3": 0.734}
{"gene": "CEMIP", "PubChem SID": "SID442887922", "robust z-score, replicate 1": 0.805, "robust z-score, replicate 2": 0.865, "robust z-score, replicate 3": 0.778}
{"gene": "DHRS1", "PubChem SID": "SID442890178", "robust z-score, replicate 1": 0.664, "robust z-score, replicate 2": 0.328, "robust z-score, replicate 3": 0.367}
{"gene": "CFAP53", "PubChem SID": "SID442892398", "robust z-score, replicate 1": 0.197, "robust z-score, replicate 2": 0.152, "robust z-score, replicate 3": 0.167}
{"gene": "SCNN1B", "PubChem SID": "SID442898736", "robust z-score, replicate 1": -0.7, "robust z-score, replicate 2": -0.602, "robust z-score, replicate 3": -0.292}
{"gene": "GSC2", "PubChem SID": "SID442883769", "robust z-score, replicate 1": "2.17 (active)", "robust z-score, replicate 2": 2.21, "robust z-score, replicate 3": 2.63}
{"gene": "BRD1", "PubChem SID": "SID442898670", "robust z-score, replicate 1": -1.02, "robust z-score, replicate 2": -0.812, "robust z-score, replicate 3": 0.261}
{"gene": "USP38", "PubChem SID": "SID442887663", "robust z-score, replicate 1": 0.925, "robust z-score, replicate 2": 0.319, "robust z-score, replicate 3": 1.36}
{"gene": "SCGB1A1", "PubChem SID": "SID442888771", "robust z-score, replicate 1": 1.04, "robust z-score, replicate 2": 0.451, "robust z-score, replicate 3": 0.506}
{"gene": "CARD18", "PubChem SID": "SID442903535", "robust z-score, replicate 1": -0.967, "robust z-score, replicate 2": -1.49, "robust z-score, replicate 3": -1.5}
{"gene": "LINC00319", "PubChem SID": "SID442885060", "robust z-score, replicate 1": 1.88, "robust z-score, replicate 2": 1.96, "robust z-score, replicate 3": 1.26}
{"gene": "NTSR1", "PubChem SID": "SID442891837", "robust z-score, replicate 1": 0.00517, "robust z-score, replicate 2": 0.397, "robust z-score, replicate 3": 0.316}

A stretch of the results above, for reference:
{"gene": "SCGB1A1", "PubChem SID": "SID442888771", "robust z-score, replicate 1": 1.04, "robust z-score, replicate 2": 0.451, "robust z-score, replicate 3": 0.506}
{"gene": "CARD18", "PubChem SID": "SID442903535", "robust z-score, replicate 1": -0.967, "robust z-score, replicate 2": -1.49, "robust z-score, replicate 3": -1.5}

Further results follow:
{"gene": "PDP1", "PubChem SID": "SID442899017", "robust z-score, replicate 1": -0.337, "robust z-score, replicate 2": -1.17, "robust z-score, replicate 3": -0.19}
{"gene": "CAVIN3", "PubChem SID": "SID442903449", "robust z-score, replicate 1": -1.37, "robust z-score, replicate 2": -0.965, "robust z-score, replicate 3": -1.56}
{"gene": "ZCCHC4", "PubChem SID": "SID442893046", "robust z-score, replicate 1": 0.522, "robust z-score, replicate 2": -0.643, "robust z-score, replicate 3": 0.401}
{"gene": "HAAO", "PubChem SID": "SID442899288", "robust z-score, replicate 1": -1.06, "robust z-score, replicate 2": -0.501, "robust z-score, replicate 3": -0.246}
{"gene": "SERPINI1", "PubChem SID": "SID442898232", "robust z-score, replicate 1": -0.687, "robust z-score, replicate 2": 0.0803, "robust z-score, replicate 3": -0.821}
{"gene": "MAP2K5", "PubChem SID": "SID442883862", "robust z-score, replicate 1": "2.08 (active)", "robust z-score, replicate 2": 2.37, "robust z-score, replicate 3": 2.24}
{"gene": "SCAF8", "PubChem SID": "SID442895419", "robust z-score, replicate 1": 0.0758, "robust z-score, replicate 2": -0.469, "robust z-score, replicate 3": -0.106}
{"gene": "LOC389958 (retired record)", "PubChem SID": "SID442895766", "robust z-score, replicate 1": -0.142, "robust z-score, replicate 2": -0.166, "robust z-score, replicate 3": -0.304}
{"gene": "HUS1B", "PubChem SID": "SID442889172", "robust z-score, replicate 1": 0.504, "robust z-score, replicate 2": 0.762, "robust z-score, replicate 3": 0.536}
{"gene": "CABCOCO1", "PubChem SID": "SID442891058", "robust z-score, replicate 1": 0.346, "robust z-score, replicate 2": 0.000689, "robust z-score, replicate 3": 0.664}
